“And” between values parts separate entries of the source, which are not always exact repeats. Equal values may be shown once. Some of the results follow. These are further read-outs of the screen, such as a control signal, another cell line or another target. No call is given for them. Compounds called inactive in the main read-out are mostly missing here. Potencies come from curve fits of mixed quality, noted in brackets.
Assay: Cell signaling CRE-BLA (Fsk stim)
Details: CHO CRE-bla reporter (cAMP response element driving beta-lactamase), forskolin EC10, beta-lactamase ratio; measured here: 460 nm blue channel
Outline: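 AC50 values, positive or negative, reflect shifts in EC10 NKH 477-induced CRE-bla reporter activity in CHO cells. Incubation lasted 3 h at 37 °C before CCF4 substrate (2 h, room temperature) and ratiometric 460/530 nm reading.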
In the case of `Cc1cc(C)n2nc(C(=O)Oc3ccc4c(c3)OCO4)nc2n1`, the AC50 is reported as 5.01 µM [falling, single point].
For `Cc1cc(C)n(-c2ncc(-c3ccccc3)nn2)n1`, the AC50 was 20 µM [rising, single point].
For `Cc1ccc(SCCNS(=O)(=O)c2ccc(F)cc2)cc1`, the AC50 was 0.398 µM [falling, partial curve].
For `CCOC(=O)c1c(Nc2nc(C)c(C(=O)NC)s2)sc(C)c1C`, the AC50 was 1.58 µM [rising, full curve].
With `CCn1cnc2c1c(=O)n(Cc1csc(-c3ccccc3)n1)c(=O)n2Cc1ccccc1` the AC50 was 7.94 µM [rising, partial curve].
For `COc1cccc(CNc2nc3nc(C)c(Cl)c(C)n3n2)c1`, the AC50 was 12.6 µM [rising, partial curve].
With `Cc1ccc(-c2nnn(CC(=O)NC3CC4CCC3C4)n2)cc1` (stereo unspecified) the AC50 was 0.00631 µM [falling, full curve, poor fit].
In the case of `CCC(=O)N1c2ccc(S(=O)(=O)CCC(=O)N3CCn4c3nc3ccccc34)cc2CC1C` (stereo unspecified), the AC50 is reported as 0.1 µM [falling, partial curve, poor fit].
With `Cc1ccc(S(=O)(=O)N2CCCC(c3nnc4n3-c3ccccc3SC4)C2)cc1` (stereo unspecified) the AC50 was 3.16 µM [rising, single point].
In the case of `COc1cccc(C(c2sc3nc(C)nn3c2O)N2CCN(C(=O)c3ccco3)CC2)c1` (stereo unspecified), the AC50 is reported as 7.94 µM [rising, partial curve].
With `COc1ccc(OC)c(CCNC(=O)Cn2sc3nc(C)cc(C)c3c2=O)c1` the AC50 was 25.1 µM [falling, single point].
For `COc1ccc(-c2noc(CN3C(=O)c4ccccc4C3=O)n2)cc1`, the AC50 was 25.1 µM [rising, single point].
For `O=C(COC(=O)c1ccc2c(c1)OCO2)NCc1ccc(Cl)cc1`, the AC50 was 5.01 µM [falling, single point].
With `CCCCOC(=O)c1cc2c(cn1)[nH]c1ccccc12` the AC50 was 25.1 µM [falling, single point].
For `Cc1cc(/C=N/n2cnnc2)c(C)n1-c1ccc2ncccc2c1`, the AC50 was 1.26 µM [rising, partial curve].
For `CSc1nc2ccc(NS(=O)(=O)c3ccc4c(c3)OCCO4)cc2s1`, the AC50 was 0.794 µM [falling, partial curve].
With `Clc1c(CSc2nc3ccccc3o2)nc2ccccn12` the AC50 was 3.16 µM [rising, full curve].
For `COc1cc(NC(=O)c2cnn3c(C)cc(C)nc23)c(OC)cc1Cl`, the AC50 was 2 µM [rising, full curve].
In the case of `COn1c(C)c(C(C)=O)c2c3nonc3ccc21`, the AC50 is reported as 25.1 µM [rising, single point].
In the case of `COc1ccc(OC)c2[nH]c(=O)c(CCNC(=O)CC(C)C)cc12`, the AC50 is reported as 2.51 µM [rising, full curve, poor fit].
In the case of `Cc1nc(SCC#N)c2c(C)c(C)sc2n1`, the AC50 is reported as 2.51 µM [rising, full curve].
In the case of `Cc1nc2nc(-c3cccs3)cn2nc1C`, the AC50 is reported as 12.6 µM [rising, partial curve].
With `CCOC(=O)CCn1nc(-c2ccc(Cl)cc2)cc1N` the AC50 was 0.126 µM [falling, partial curve, poor fit].
With `Cc1nc(SCCO)c2oc3ccccc3c2n1` the AC50 was 10 µM [rising, partial curve].
In the case of `COc1ccc(-c2c(C#N)c(SCc3c(C)noc3C)nc3c2C(=O)CC(C)(C)C3)cc1`, the AC50 is reported as 31.6 µM [falling, partial curve, poor fit].
For `N#Cc1c(NC(=O)CSc2n[nH]c(Cc3ccccc3)n2)oc(-c2ccccc2)c1-c1ccccc1`, the AC50 was 12.6 µM [falling, partial curve].
In the case of `CC(C(=O)Nc1nccs1)N1C(=O)C2CC=CCC2C1=O` (stereo unspecified), the AC50 is reported as 5.01 µM [falling, single point].
With `CC(=O)c1ccc(NC(=O)Nc2ncn(Cc3cccc(C)c3)n2)cc1` the AC50 was 6.31 µM [rising, partial curve].
In the case of `Cn1c(=O)[nH]c(=O)c2c1nc(Br)n2CCOc1ccccc1`, the AC50 is reported as 5.01 µM [rising, partial curve].
In the case of `CN1CC=C2C(C#N)=C(N)C(C#N)(C#N)C(CCc3ccccc3)C2C1` (stereo unspecified), the AC50 is reported as 10 µM [rising, single point].
With `Cc1cc(C)n2nc(C(=O)NCc3ccccc3)cc2n1` the AC50 was 0.316 µM [rising, full curve, poor fit].
With `O=c1c(CCc2ccccc2)nc2cnc(N3CCOCC3)nc2n1C[C@H]1CCCO1` the AC50 was 10 µM [rising, partial curve].
With `COc1ccc(C[C@@H]2C(=O)N[C@H](C)C(=O)N(C)[C@@H]3Cc4ccc(cc4)Oc4cc(ccc4O)C[C@H](C(=O)N[C@@H](C)C(=O)N[C@H](C)C(=O)N2C)N(C)C3=O)cc1` the AC50 was 3.98 µM [falling, partial curve].
For `CC(C)(C)c1ccc(-c2nnc(SCCC#N)n2C2CCCC2)cc1`, the AC50 was 0.2 µM [falling, partial curve].
In the case of `c1ccc(COc2ccc(Oc3nc(N4CCCCC4)nc(N4CCOCC4)n3)nn2)cc1`, the AC50 is reported as 25.1 µM [rising, single point].
In the case of `Cc1ccc(C2C3=C(CC(C)(C)CC3=O)NC3=C2C(=O)CC(C)(C)C3)o1`, the AC50 is reported as 0.794 µM [rising, full curve].
In the case of `NC(=O)SCC(=O)Nc1ccc(Cl)c(Cl)c1`, the AC50 is reported as 12.6 µM [falling, single point].
With `COc1ccc(CCCO[C@@H](Cn2ccnc2)c2ccc(OC)cc2)cc1` the AC50 was 31.6 µM [falling, partial curve, poor fit].
In the case of `CCCc1cc(C(=O)Cc2ccc(C(=O)OCC)o2)c(O)cc1O`, the AC50 is reported as 31.6 µM [falling, single point].
With `CCn1c(Cc2ccc(OC)cc2)nnc1SCC(=O)Nc1cccc(C(=O)OC)c1` the AC50 was 25.1 µM [rising, single point].
For `COc1ccc(S(=O)(=O)N2CCN(CC(=O)Nc3ccc(C)c(F)c3)CC2)cc1`, the AC50 was 0.00316 µM [falling, full curve, poor fit].
For `O=C(CN(CC1CCCO1)C(=O)CCC(=O)Nc1nccs1)NCc1ccc2c(c1)OCO2` (stereo unspecified), the AC50 was 5.01 µM [falling, single point].
With `O=C(Nc1cccnc1)c1cc2nc(C3CC3)cc(C(F)(F)F)n2n1` the AC50 was 12.6 µM [rising, single point].
For `CCOC(=O)c1c(C)c(C(=O)NCc2ccc3c(c2)OCO3)c(C)n1C`, the AC50 was 10 µM [rising, single point].
With `COc1cc(C(=O)NCc2nnc(SCC(=O)Nc3cccc(C)c3)o2)cc(OC)c1OC` the AC50 was 12.6 µM [rising, single point].
In the case of `CCNCCCNCCCNCCCNCC`, the AC50 is reported as 31.6 µM [falling, partial curve, poor fit].
In the case of `COCCn1c(=O)c(-c2ccccc2)nc2cnc(N3CCN(C)CC3)nc21`, the AC50 is reported as 10 µM [rising, partial curve].
In the case of `Clc1ccc(C(c2ccccc2Cl)C(Cl)Cl)cc1` (stereo unspecified), the AC50 is reported as 31.6 µM [falling, single point].
For `CN(C)c1ccc(C(=C2C=CC(=[N+](C)C)C=C2)c2ccccc2)cc1`, the AC50 was 1 µM [falling, full curve] and 794 nM [rising, partial curve, poor fit].
In the case of `C/C(Cl)=C/CSc1nc2c(c(=O)[nH]c(=O)n2C)n1C(C)C`, the AC50 is reported as 10 µM [rising, partial curve].
For `COc1ccc(-c2nc3cnccn3c2Nc2ccc3c(c2)OCO3)cc1`, the AC50 was 6.31 µM [rising, partial curve].
For `CCCCCC1CCC(C(=O)O)CC1` (stereo unspecified), the AC50 was 0.2 µM [falling, full curve].
For `O=c1[nH]c(CSc2nnc(COc3ccccc3)n2-c2ccccc2)nc2ccccc12`, the AC50 was 10 µM [rising, partial curve].
With `CCOC(=O)c1cc2occc2n1CCCN1C(=O)c2ccccc2C1=O` the AC50 was 15.8 µM [rising, partial curve].
With `CCCCn1c(SCc2cc(=O)[nH]c3ccccc23)nc2c1c(=O)n(C)c(=O)n2C` the AC50 was 1.26 µM [rising, partial curve, poor fit].
For `Cc1ccc(NC(=O)c2ccc(F)c(S(=O)(=O)N3CCOCC3)c2)cc1F`, the AC50 was 2 µM [falling, single point].
For `Cc1cc(C)n(-c2cc(C)c(C)cc2Br)n1`, the AC50 was 20 µM [falling, partial curve].
With `Cc1ccc2oc(=O)c3cc(C(=O)NCCN4CCN(C)CC4)sc3c2c1` the AC50 was 2 µM [rising, full curve].
With `N#Cc1cccc(-c2nccc(-n3ccnc3)n2)c1` the AC50 was 2.51 µM [rising, full curve].
With `N#Cc1c2c(c(=S)n(-c3ccccc3)c1N)CCCC2` the AC50 was 0.00316 µM [falling, full curve, poor fit].
For `CC(C)c1ccc2oc(=O)cc(CN3CCN(c4ccccc4)CC3)c2c1`, the AC50 was 5.01 µM [rising, single point].
With `O=C(Cn1ccc2ccccc2c1=O)NCCC(=O)Nc1cccnc1` the AC50 was 12.6 µM [falling, partial curve, poor fit].
For `c1ccc2c(c1)ncn2Cc1nnc2sc(-c3ccncc3)nn12`, the AC50 was 25.1 µM [rising, single point].
With `CCCCn1c(SCc2cc(=O)n3ccsc3n2)nc2cc(C(=O)OC)ccc2c1=O` the AC50 was 3.16 µM [rising, partial curve, poor fit].
For `CCc1cc(=O)oc2cc(OCC(=O)N(CC)CC)c(Cl)cc12`, the AC50 was 10 µM [rising, partial curve].
In the case of `N#Cc1ccc(NC(=O)C2CC(c3ccc(F)cc3)=NO2)cc1` (stereo unspecified), the AC50 is reported as 25.1 µM [rising, single point].

Source: PubChem BioAssay AID662 (National Center for Advancing Translational Sciences (NCATS), 2007)
